Measured values taken from PubChem BioAssay AID342 (DTP/NCI, 2004).
The list is a part of this screen's results and no random one: it is rich in T/C values a quarter to a half above the control, in often repeated tests (any T/C) and in doses without a T/C. Other doses and runs of a compound stand elsewhere. T/C: endpoint of the treated group in % of that of the vehicle group. Schedules are NCI's codes, taken here to give the interval after Q, in days (D) or hours (H), and the number of doses after X. Some schedules carry Z or #; the key to these is not given. Some T/C values are followed by the survivors on the day toxicity was checked, most often the fifth; where none is given, no animal had died by that day. Some entries give survivors of the animals treated and no T/C: the source holds a T/C of zero for them, seemingly a mark for toxic or unscored doses. Survivors were counted at the toxicity check, usually on the fifth day, unless a day is given; later deaths do not show. Some doses were run more than once; the results are listed from low to high.

System: Swiss mice, Sarcoma 180 sc, mean tumor weight T/C
Assay: NCI In Vivo Anticancer Drug Screen. Data for tumor model Sarcoma 180 (subcutaneous) in Swiss mice
Conditions: T/C endpoint: mean tumor weight, higher T/C = larger tumour; for T/C: evaluated on day 8
Procedure, shortened: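 Mice bearing transplanted tumors were treated with compound, and survival or tumor size was measured. Values are expressed as the treated-group measurement (T) divided by the vehicle-treated control measurement (C).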

[1] = dose: 250.0 mg/kg/injection, schedule: Q#A X014 (ip), vehicle: carboxymethylcellulose (CMC)
[2] = dose: 125.0 mg/kg/injection, schedule: Q01DX007 (ip), vehicle: carboxymethylcellulose (CMC)
[3] = dose: 500.0 mg/kg/injection, schedule: Q01DX007 (ip), vehicle: saline

O=C1N(Cl)C(=O)C(c2ccccc2)(c2ccc(F)cc2)N1Cl (configuration not stated)
T/C (dose: 27.5 mg/kg/injection, schedule: Q#A X014 (ip), vehicle: methylcellulose (MC)): 132 % of control [5 of 6 alive]

CN(C)[C@@H]1C(=O)C(C(=O)NCNCCCC(=O)O)=C(O)[C@@]2(O)C(=O)C3=C(O)c4c(O)cccc4[C@@](C)(O)[C@H]3C[C@@H]12
survivor count (dose: 250.0 mg/kg/injection, schedule: Q#A X014 (ip), vehicle: saline): 1 of 6
survivor count (dose: 375.0 mg/kg/injection, schedule: Q#A X014 (ip), vehicle: saline): 1 of 6

CC1OC(OC2C(CO)OC(O[C@H]3CC[C@@]4(C)C(=CC[C@H]5[C@@H]6C[C@@H]7O[C@@]8(CC[C@H](C)CN8)[C@@H](C)[C@@H]7[C@@]6(C)CC[C@@H]54)C3)C(OC3OC(C)C(O)C(O)C3O)C2O)C(O)C(O)C1O (some centres not stated)
survivor count (dose: 20.0 mg/kg/injection, schedule: Q01DX007 (ip), vehicle: saline): 2 of 4

CC(=O)Nc1cc2oc3ccccc3c2cc1[N+](=O)[O-]
survivor count (dose: 500.0 mg/kg/injection, schedule: Q01DX007 (ip), vehicle: methylcellulose (MC)): 4 of 7
survivor count (dose: 750.0 mg/kg/injection, schedule: Q01DX007 (ip), vehicle: methylcellulose (MC)): 3 of 7

c1ccn(-c2nc(-n3cccc3)nc(-n3cccc3)n2)c1
survivor count [1]: 3 of 6

Cc1ccc(N=NN(C)C)cc1
survivor count (dose: 112.0 mg/kg/injection, schedule: Q01DX007 (ip), vehicle: carboxymethylcellulose (CMC)): 3 of 6

CS(=O)(=O)OCCCCCOS(C)(=O)=O
survivor count (dose: 37.5 mg/kg/injection, schedule: Q#A X014 (ip), vehicle: methylcellulose (MC)): 3 of 6
survivor count (dose: 56.5 mg/kg/injection, schedule: Q#A X014 (ip), vehicle: methylcellulose (MC)): 3 of 6

CN(C)c1ccc(C(C#N)C(C#N)c2ccccc2)cc1 (configuration not stated)
survivor count (dose: 60.0 mg/kg/injection, schedule: Q#A X014 (ip), vehicle: methylcellulose (MC)): 1 of 6

COC(=O)C1C(O)CCC2CN3CCc4c([nH]c5ccccc45)C3CC21 (configuration not stated)
survivor count (dose: 300.0 mg/kg/injection, schedule: Q01DX007 (ip), vehicle: carboxymethylcellulose (CMC)): 2 of 6
survivor count (dose: 500.0 mg/kg/injection, schedule: Q01DX007 (ip), vehicle: carboxymethylcellulose (CMC)): 0 of 6

c1ccc2c(c1)-c1cccc3c1c-2cc1ccccc13
survivor count (dose: 55.0 mg/kg/injection, schedule: Q01DX007 (ip), vehicle: other): 1 of 6 and 2 of 6
survivor count (dose: 82.0 mg/kg/injection, schedule: Q01DX007 (ip), vehicle: other): 2 of 6
survivor count (dose: 82.5 mg/kg/injection, schedule: Q01DX007 (ip), vehicle: carboxymethylcellulose (CMC)): 3 of 6
survivor count [2]: 0 of 6
survivor count (dose: 188.0 mg/kg/injection, schedule: Q01DX007 (ip), vehicle: carboxymethylcellulose (CMC)): 2 of 6
survivor count (dose: 188.0 mg/kg/injection, schedule: Q01DX007 (ip), vehicle: other): 0 of 6

CS(=O)(=O)OCCCl
survivor count (dose: 53.4 mg/kg/injection, schedule: Q#A X014 (ip), vehicle: carboxymethylcellulose (CMC)): 5 of 10

Cc1cc2nc(Cc3nc4cc(C)c(C)cc4[nH]3)[nH]c2cc1C
T/C (dose: 27.0 mg/kg/injection, schedule: Q01DX007 (ip), vehicle: carboxymethylcellulose (CMC)): 132 % of control
T/C (dose: 40.0 mg/kg/injection, schedule: Q01DX007 (ip), vehicle: carboxymethylcellulose (CMC)): 144 % of control

CC1CN1P(=O)(Oc1ccccc1)N1CC1C (configuration not stated)
survivor count (dose: 62.5 mg/kg/injection, schedule: Q#A X014 (ip), vehicle: saline): 3 of 6
survivor count (dose: 94.0 mg/kg/injection, schedule: Q#A X014 (ip), vehicle: saline): 1 of 6, 2 of 6, 4 of 8

CC1CCOS(=O)O1 (configuration not stated)
T/C (dose: 6.25 mg/kg/injection, schedule: Q01DX007 (oral), vehicle: propolene glycol): 149 % of control
T/C (dose: 24.0 mg/kg/injection, schedule: Q01DX007 (ip), vehicle: carboxymethylcellulose (CMC)): 137 % of control

CSCS(=O)C[C@H](CO)NC(=O)/C=C/c1c(C)[nH]c(=O)[nH]c1=O (some centres not stated)
T/C (dose: 0.75 mg/kg/injection, schedule: Q03DX003 (ip), vehicle: saline): 132 % of control
survivor count (dose: 0.75 mg/kg/injection, schedule: Q#A X014 (ip), vehicle: carboxymethylcellulose (CMC)): 1 of 7
survivor count (dose: 2.0 mg/kg/injection, schedule: Q01DX007 (iv), vehicle: saline): 1 of 6
survivor count [1]: 3 of 6

COc1cc(C(=O)CC2CCCCN2)ccc1O (configuration not stated)
survivor count [3]: 0 of 6

S=P(N1CCCCCC1)(N1CC1)N1CC1
survivor count (dose: 101.0 mg/kg/injection, schedule: Q01DX007 (ip), vehicle: carboxymethylcellulose (CMC)): 3 of 6

O=C(Nc1ccc(C2=NCCN2)cc1)c1ccc(C(=O)Nc2ccc(C3=NCCN3)cc2)c(Cl)c1
T/C (dose: 10.0 mg/kg/injection, schedule: Q01DX007 (ip), vehicle: water): 131 % of control

O=C(Nc1ccc(Sc2ccc(N=Nc3c(O)c(S(=O)(=O)O)cc4cc(S(=O)(=O)O)ccc34)cc2)cc1)c1ccc(N=Nc2ccc3c(S(=O)(=O)O)cccc3c2O)cc1
survivor count [2]: 1 of 6

CC1=C(/C=C/C(C)=N/NC(N)=S)C(C)(C)CCC1
survivor count (dose: 45.0 mg/kg/injection, schedule: Q01DX007 (ip), vehicle: other): 0 of 6

CN(C)[C@@H]1C(=O)C(C(=O)NCNC2(C(=O)O)CCCC2)=C(O)[C@@]2(O)C(=O)C3=C(O)c4c(O)cccc4[C@@](C)(O)[C@H]3C[C@@H]12
survivor count [3]: 2 of 6

CCOC(=O)C1=C(C)NC(C)=C(C(=O)OCC)C1C
survivor count (dose: 12.5 mg/kg/injection, schedule: Q01DX007 (ip), vehicle: other): 1 of 7
survivor count (dose: 31.2 mg/kg/injection, schedule: Q01DX007 (ip), vehicle: other): 2 of 6
survivor count (dose: 62.5 mg/kg/injection, schedule: Q01DX007 (ip), vehicle: other): 3 of 6

O=NN1CCN(N=O)CC1
T/C (dose: 10.12 mg/kg/injection, schedule: Q#A X014 (ip), vehicle: carboxymethylcellulose (CMC)): 129 % of control

CCCCn1cnc2c(SSc3ncnc4c3ncn4CCCC)ncnc21
survivor count (dose: 53.0 mg/kg/injection, schedule: Q01DX007 (ip), vehicle: saline): 1 of 6
survivor count (dose: 83.0 mg/kg/injection, schedule: Q01DX007 (ip), vehicle: carboxymethylcellulose (CMC)): 2 of 7
survivor count [2]: 0 of 7
survivor count (dose: 187.0 mg/kg/injection, schedule: Q01DX007 (ip), vehicle: carboxymethylcellulose (CMC)): 0 of 7
survivor count (dose: 187.0 mg/kg/injection, schedule: Q01DX007 (ip), vehicle: saline): 2 of 6

O=C(O)c1cc2ccccc2c(Br)c1O.OC1CCC(Br)C2CCC[N-]C12.[Cu+]
survivor count (dose: 0.5 mg/kg/injection, schedule: Q01DX007 (ip), vehicle: carboxymethylcellulose (CMC)): 3 of 6

O=C(O)c1ccccc1C(=O)OCc1ccccc1
T/C [2]: 131 % of control
T/C (dose: 250.0 mg/kg/injection, schedule: Q01DX007 (ip), vehicle: carboxymethylcellulose (CMC)): 132 % of control [4 of 6 alive]

CCOC(=O)NP(=O)(N1CC1)N1CC1
T/C (dose: 3750.0 micrograms/kg/injection, schedule: Q01DX007 (ip), vehicle: carboxymethylcellulose (CMC)): 125 % of control

CC(=O)[C@H]1CC[C@H]2[C@@H]3C[C@H](F)C4=CC(=O)CC[C@]4(C)[C@@]3(F)[C@@H](O)C[C@]12C
survivor count (dose: 282.0 mg/kg/injection, schedule: Q01DX007 (sc), vehicle: steroid suspending solution): 1 of 6
survivor count (dose: 376.0 mg/kg/injection, schedule: Q01DX007 (sc), vehicle: steroid suspending solution): 2 of 6

COC(=O)C1=COC(C)C2CN3CCc4c([nH]c5cc(OC)ccc45)C3CC12 (configuration not stated)
survivor count (dose: 400.0 mg/kg/injection, schedule: Q01DX007 (ip), vehicle: other): 2 of 6

CN(C)[C@@H]1C(=O)C(C(=O)NCNc2nc(=S)c3[nH]cnc3[nH]2)=C(O)[C@@]2(O)C(=O)C3=C(O)c4c(O)cccc4[C@@](C)(O)[C@H]3C[C@@H]12
survivor count [2]: 1 of 6

CCCCOCN1CCCCC1
survivor count (dose: 200.0 mg/kg/injection, schedule: Q01DX007 (ip), vehicle: carboxymethylcellulose (CMC)): 1 of 6

C=CCSc1ncnc2c1ncn2C1OC(CO)C(O)C1O (configuration not stated)
survivor count (dose: 200.0 mg/kg/injection, schedule: Q01DX007 (ip), vehicle: saline): 3 of 6
survivor count (dose: 300.0 mg/kg/injection, schedule: Q01DX007 (ip), vehicle: saline): 3 of 6
survivor count (dose: 400.0 mg/kg/injection, schedule: Q01DX007 (ip), vehicle: saline): 0 of 6
